The source of these data is article PMC10703783.

Sequences of proteins named here, by UniProt entry; tags and fusion partners are left off.
UniProt Q00987: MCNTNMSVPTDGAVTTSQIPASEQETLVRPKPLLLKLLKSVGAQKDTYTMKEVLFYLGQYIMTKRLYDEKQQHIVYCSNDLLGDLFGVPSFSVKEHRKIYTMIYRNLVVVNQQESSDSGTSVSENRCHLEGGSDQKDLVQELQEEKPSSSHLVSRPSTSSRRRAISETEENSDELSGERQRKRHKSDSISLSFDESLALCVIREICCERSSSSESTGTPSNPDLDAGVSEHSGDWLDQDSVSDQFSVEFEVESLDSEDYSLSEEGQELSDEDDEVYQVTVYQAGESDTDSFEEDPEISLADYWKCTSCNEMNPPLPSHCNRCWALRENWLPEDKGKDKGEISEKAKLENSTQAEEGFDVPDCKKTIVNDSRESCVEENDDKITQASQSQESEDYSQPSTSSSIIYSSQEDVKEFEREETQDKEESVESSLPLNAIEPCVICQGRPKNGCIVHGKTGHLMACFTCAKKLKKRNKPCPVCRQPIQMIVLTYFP
UniProt Q14690: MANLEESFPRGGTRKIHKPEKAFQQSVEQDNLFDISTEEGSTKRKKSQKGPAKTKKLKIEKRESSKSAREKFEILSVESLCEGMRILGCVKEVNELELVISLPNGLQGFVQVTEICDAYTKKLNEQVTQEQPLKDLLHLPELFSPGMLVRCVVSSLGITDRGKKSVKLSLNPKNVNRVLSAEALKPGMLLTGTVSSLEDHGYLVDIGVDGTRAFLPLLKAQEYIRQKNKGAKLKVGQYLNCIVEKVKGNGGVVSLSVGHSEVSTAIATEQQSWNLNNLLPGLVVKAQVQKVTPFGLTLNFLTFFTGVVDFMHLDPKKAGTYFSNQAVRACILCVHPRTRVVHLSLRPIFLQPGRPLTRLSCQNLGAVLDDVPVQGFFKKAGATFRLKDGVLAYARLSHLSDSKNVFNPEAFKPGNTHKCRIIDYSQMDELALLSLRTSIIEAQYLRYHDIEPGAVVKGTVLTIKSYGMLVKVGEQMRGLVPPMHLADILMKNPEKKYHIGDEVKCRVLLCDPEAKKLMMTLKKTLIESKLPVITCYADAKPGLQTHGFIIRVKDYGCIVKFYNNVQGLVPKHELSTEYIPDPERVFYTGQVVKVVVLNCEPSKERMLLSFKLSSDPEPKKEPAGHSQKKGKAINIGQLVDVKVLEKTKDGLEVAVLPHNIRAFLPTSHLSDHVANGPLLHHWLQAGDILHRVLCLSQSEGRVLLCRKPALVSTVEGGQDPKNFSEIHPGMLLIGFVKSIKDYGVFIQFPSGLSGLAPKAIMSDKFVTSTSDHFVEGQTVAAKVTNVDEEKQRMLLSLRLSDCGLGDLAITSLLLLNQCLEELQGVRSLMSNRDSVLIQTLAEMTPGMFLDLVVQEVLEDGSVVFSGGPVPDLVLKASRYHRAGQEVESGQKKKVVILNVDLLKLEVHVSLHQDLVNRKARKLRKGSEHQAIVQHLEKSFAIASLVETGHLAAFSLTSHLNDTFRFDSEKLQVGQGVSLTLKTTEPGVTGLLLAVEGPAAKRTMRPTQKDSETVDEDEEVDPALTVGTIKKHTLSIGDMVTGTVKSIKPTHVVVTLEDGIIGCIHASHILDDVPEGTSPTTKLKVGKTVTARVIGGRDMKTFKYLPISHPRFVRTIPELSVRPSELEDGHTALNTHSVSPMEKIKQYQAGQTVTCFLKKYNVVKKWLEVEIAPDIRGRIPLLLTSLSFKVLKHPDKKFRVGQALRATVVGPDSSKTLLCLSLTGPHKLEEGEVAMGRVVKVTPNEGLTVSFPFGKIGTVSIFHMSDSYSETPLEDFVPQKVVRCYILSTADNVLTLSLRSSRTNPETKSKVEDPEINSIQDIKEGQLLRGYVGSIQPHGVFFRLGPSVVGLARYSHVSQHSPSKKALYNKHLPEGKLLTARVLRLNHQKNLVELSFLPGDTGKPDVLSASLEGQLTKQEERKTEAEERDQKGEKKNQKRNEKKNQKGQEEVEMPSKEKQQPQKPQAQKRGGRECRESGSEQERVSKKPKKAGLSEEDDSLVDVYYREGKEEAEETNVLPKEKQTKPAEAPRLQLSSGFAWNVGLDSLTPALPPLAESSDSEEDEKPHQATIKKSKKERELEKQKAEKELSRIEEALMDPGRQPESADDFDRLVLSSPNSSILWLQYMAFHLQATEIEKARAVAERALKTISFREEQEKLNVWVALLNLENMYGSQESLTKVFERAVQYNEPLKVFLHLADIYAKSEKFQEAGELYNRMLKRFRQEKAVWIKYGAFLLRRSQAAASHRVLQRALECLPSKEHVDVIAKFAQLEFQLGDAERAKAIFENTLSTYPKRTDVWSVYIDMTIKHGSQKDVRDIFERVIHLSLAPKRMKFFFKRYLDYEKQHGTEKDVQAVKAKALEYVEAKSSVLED

These are yes or no findings as the source states them, for the method shown. Binding seen in cells or lysates may run through a third protein. Some entries that bind do so weakly or less than the wild type.

Assay [1] has as its target endogenous HDM2 (human (endogenous in HCT116)) (UniProt Q00987). The experiment in a line: proximity ligation; PLA of endogenous proteins in a panel of CRC cells harboring wild-type p53.
Assay [2] has the same target. The experiment in a line: co-IP; endogenous proteins from HCT116 p53+/+ cell lysate; IP with anti-p53 (DO-1) or anti-HDM2 (D1V2Z); normal IgG as negative control.
Assay [3] addresses mCherryC160-HDM2 (BiFC fusion) (UniProt Q00987). The experiment in a line: split reporter; BiFC with mCherryN159 and mCherryC160 fusions co-transfected into HCT116 cells.

Turning to “endogenous PDCD11 (from UniProt Q14690 1-1871)”, the binding entry in assay [1] and in assay [2] was “binds” in each case.

With “mCherryN159-PDCD11 (BiFC fusion) (from UniProt Q14690 1-1871)”, the binding result in assay [3] was “binds”.
